According to patent publication US9739767B2, “Method of screening for plant defense activators, plant defense activators, and method of enhancing immune response” (TOKYO UNIVERSITY OF SCIENCE FOUNDATION, priority 2010, dated 2017):
Some of these results come from one statement about several compounds together.

tested on: tobacco BY-2 cells; assay: ROS generation in tobacco BY-2 cells after cryptogein (screening method); format: cell-based; conditions: compound added 3 h before cryptogein, ROS level 5 h after elicitor (FIG. 1)

| SMILES | enhancement of an immune response of a plant (screening method of the invention) |
| --- | --- |
| O=c1cc(N2CCOCC2)oc2c(-c3ccccc3)cccc12 [Compound 1, LY294002] | enhancing an immune response of a plant |
| CCOC(=O)[C@H]1O[C@@H]1C(=O)NC(CC(C)C)C(=O)NCCC(C)C (stereo partly shown) [Compound 5, E-64d] | enhancing an immune response of a plant |
| Cn1cnc(=N)c2nc[nH]c21 [Compound 3, 3MA] | enhancing an immune response of a plant |
| O=c1cc(N2CCNCC2)oc2c(-c3ccccc3)cccc12 [Compound 2, LY303511] | enhancing an immune response of a plant |
